Values from PubChem BioAssay AID1224826 (NIAID, 2016).
The deposit covers about 17,000 reagents; shown is a random part of them. Of all reagents, about 1,110 (6.6%) got an active call. 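Active means lowered or raised reporter signal; replicate intensities are raw and not normalised per plate.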 Not all columns of the deposit are shown.

- Aim: 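Regulators of Tlr4 signalling leading to Tnf-alpha expression in macrophages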 (primary screen)
- Cell system: RAW264.7 G9 macrophages from mouse bearing reporters for p65 (GFP) and the Tnf promoter (mCherry)
- Knock-down reagent: siRNA pool against mouse genes, 100 nM
- Duration: 16 h of LPS stimulation, after 2 days of siRNA transfection
- Challenge: bacterial lipopolysaccharide (Salmonella minnesota R595), 10 ng/ml
- Read-out: 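Nuclear mCherry signal of the Tnf promoter reporter measured by imaging after background removal, scaled to each plate median and turned into robust z-scores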
- Scale: Tnf reporter robust z-score: higher = stronger Tnf promoter reporter signal after LPS
- Active means: 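a well counts as active at a score of -1.3 or below (Tlr4 knock-down control median) or above 3 (raised signal); controls and wells holding fewer than 50 cells are excluded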
- Calls: active = Tnf reporter clearly lowered or raised; inactive = no clear change in Tnf reporter

| Target gene | Tnf reporter robust z-score | fewer than 50 cells in well | Outcome |
| --- | --- | --- | --- |
| Itgav (integrin alpha V) | 0.91 | enough cells in well | inactive |
| Adam6a (a disintegrin and metallopeptidase domain 6A) | -0.4 | enough cells in well | inactive |
| Ythdf1 (YTH N6-methyladenosine RNA binding protein 1) | – | fewer than 50 cells per well; well left out of calls | inactive |
| Prlhr (prolactin releasing hormone receptor) | 0.42 | enough cells in well | inactive |
| Hk2 (hexokinase 2) | – | fewer than 50 cells per well; well left out of calls | inactive |
| Lsm4 | 2.05 | enough cells in well | inactive |
| Galnt17 (polypeptide N-acetylgalactosaminyltransferase 17) | -0.7 | enough cells in well | inactive |
| Pkp3 (plakophilin 3) | 0.15 | enough cells in well | inactive |
| Taf4 (TATA-box binding protein associated factor 4) | 1.08 | enough cells in well | inactive |
| Sox18 (SRY (sex determining region Y)-box 18) | 0.02 | enough cells in well | inactive |
| A330041J22Rik (RIKEN cDNA A330041J22 gene) | -0.45 | enough cells in well | inactive |
| Retreg2 (reticulophagy regulator family member 2) | 1.91 | enough cells in well | inactive |
| Il3ra (interleukin 3 receptor, alpha chain) | 0.64 | enough cells in well | inactive |
| Slc33a1 | – | fewer than 50 cells per well; well left out of calls | inactive |
| Pttg1 (pituitary tumor-transforming gene 1) | -0.06 | enough cells in well | inactive |
| Epsti1 (epithelial stromal interaction 1) | 2.95 | enough cells in well | inactive |
| Sri (sorcin) | 4.7 | enough cells in well | active |
| Sfi1 (Sfi1 homolog, spindle assembly associated (yeast)) | – | fewer than 50 cells per well; well left out of calls | inactive |
| Hpca (hippocalcin) | -1.25 | enough cells in well | inactive |
| Fer (FER tyrosine kinase) | 0.52 | enough cells in well | inactive |
| Nolc1 (nucleolar and coiled-body phosphoprotein 1) | -0.81 | enough cells in well | inactive |
| Ano7 (anoctamin 7) | 0.71 | enough cells in well | inactive |
| Hsd17b6 (hydroxysteroid (17-beta) dehydrogenase 6) | -1.95 | enough cells in well | active |
| Mapre2 (microtubule-associated protein, RP/EB family, member 2) | 0.22 | enough cells in well | inactive |
| Lamp5 (lysosomal-associated membrane protein family, member 5) | -0.53 | enough cells in well | inactive |
| Shisa4 (shisa family member 4) | 0.29 | enough cells in well | inactive |
| Spam1 (sperm adhesion molecule 1) | -0.11 | enough cells in well | inactive |
| A130004G07Rik (retired record) | -0.58 | enough cells in well | inactive |
| Gdf10 (growth differentiation factor 10) | 0.29 | enough cells in well | inactive |
| Prkar2b (protein kinase, cAMP dependent regulatory, type II beta) | 0.02 | enough cells in well | inactive |
| Col12a1 (collagen, type XII, alpha 1) | -0.52 | enough cells in well | inactive |
| H2-T24 (histocompatibility 2, T region locus 24) | -0.2 | enough cells in well | inactive |
| Acadm (acyl-Coenzyme A dehydrogenase, medium chain) | 0.64 | enough cells in well | inactive |
| Zic1 (zinc finger protein of the cerebellum 1) | -0.52 | enough cells in well | inactive |
| Fem1al (fem-1 homolog A like) | – | fewer than 50 cells per well; well left out of calls | inactive |
| Cntn2 (contactin 2) | -0.84 | enough cells in well | inactive |

4 entries from above in another layout:
Target gene	Tnf reporter robust z-score	fewer than 50 cells in well	Outcome
Pkp3 (plakophilin 3)	0.15	enough cells in well	inactive
Taf4 (TATA-box binding protein associated factor 4)	1.08	enough cells in well	inactive
Sox18 (SRY (sex determining region Y)-box 18)	0.02	enough cells in well	inactive
A330041J22Rik (RIKEN cDNA A330041J22 gene)	-0.45	enough cells in well	inactive

More records:
| Target gene | Tnf reporter robust z-score | fewer than 50 cells in well | Outcome |
| --- | --- | --- | --- |
| Armc7 (armadillo repeat containing 7) | -0.03 | enough cells in well | inactive |
| Gria4 (glutamate receptor, ionotropic, AMPA4 (alpha 4)) | -0.69 | enough cells in well | inactive |
| Sec22c (SEC22 homolog C, vesicle trafficking protein) | 1.88 | enough cells in well | inactive |
| Adamts20 (ADAM metallopeptidase with thrombospondin type 1 motif 20) | -0.97 | enough cells in well | inactive |
| Ntrk3 (neurotrophic tyrosine kinase, receptor, type 3) | 0.33 | enough cells in well | inactive |
| Gosr1 (golgi SNAP receptor complex member 1) | 0.34 | enough cells in well | inactive |
| Usp15 (ubiquitin specific peptidase 15) | 1.11 | enough cells in well | inactive |
| Btd (biotinidase) | -0.64 | enough cells in well | inactive |
| Cmc1 (C-X9-C motif containing 1) | – | fewer than 50 cells per well; well left out of calls | inactive |
| Fgf10 (fibroblast growth factor 10) | -1.09 | enough cells in well | inactive |
| Paqr3 (progestin and adipoQ receptor family member III) | 1.22 | enough cells in well | inactive |
| Gfus (GDP-L-fucose synthase) | -0.61 | enough cells in well | inactive |
| Cebpe (CCAAT/enhancer binding protein epsilon) | 1.06 | enough cells in well | inactive |
| Rin3 (Ras and Rab interactor 3) | 0.94 | enough cells in well | inactive |
| Zc3h13 (zinc finger CCCH type containing 13) | -0.41 | enough cells in well | inactive |
| Irx6 (Iroquois homeobox 6) | -0.63 | enough cells in well | inactive |
| Meis1 (Meis homeobox 1) | 1.83 | enough cells in well | inactive |
| Ifna1 (interferon alpha 1) | -0.64 | enough cells in well | inactive |
| Kcne4 | -1.48 | enough cells in well | active |
| Nat9 (N-acetyltransferase 9 (GCN5-related, putative)) | -0.02 | enough cells in well | inactive |
| Rph3a (rabphilin 3A) | 0.52 | enough cells in well | inactive |
| Wdr33 (WD repeat domain 33) | 0.5 | enough cells in well | inactive |
| Adamts9 (ADAM metallopeptidase with thrombospondin type 1 motif 9) | -0.07 | enough cells in well | inactive |
| Nfatc1 | -1.34 | enough cells in well | active |
| Acsm4 (acyl-CoA synthetase medium-chain family member 4) | 1.59 | enough cells in well | inactive |
| Garin5b (golgi associated RAB2 interactor family member 5B) | – | fewer than 50 cells per well; well left out of calls | inactive |
| Anpep (alanyl aminopeptidase, membrane) | -0.69 | enough cells in well | inactive |
| Zfp697 (zinc finger protein 697) | 0.54 | enough cells in well | inactive |
| Snrpd3 (small nuclear ribonucleoprotein D3) | – | fewer than 50 cells per well; well left out of calls | inactive |
| Chrna2 (cholinergic receptor nicotinic alpha 2 subunit) | 0.36 | enough cells in well | inactive |
| Slc25a36 | 0.4 | enough cells in well | inactive |
| Ranbp1 (RAN binding protein 1) | 0.65 | enough cells in well | inactive |
| Igsf8 (immunoglobulin superfamily, member 8) | – | fewer than 50 cells per well; well left out of calls | inactive |
| Klc1 (kinesin light chain 1) | 0.05 | enough cells in well | inactive |
| Crh (corticotropin releasing hormone) | 0.98 | enough cells in well | inactive |
| Rp1 (retinitis pigmentosa 1 (human)) | 0.08 | enough cells in well | inactive |
| Cdcp1 (CUB domain containing protein 1) | 1.6 | enough cells in well | inactive |
| Gpr142 (G protein-coupled receptor 142) | -0.34 | enough cells in well | inactive |
| Pcnx3 (pecanex homolog 3) | -0.85 | enough cells in well | inactive |
